Measurements as given in publication PMC11087589, “Molecular basis of bacterial DSR2 anti-phage defense and viral immune evasion” (Nature Communications, 2024).
No constants are given. Whether binding was seen depends on the method and setting.

Target: DSR2^W143G/Y148G/Y552G/V556S/F559G/N563S (Bacillus subtilis) (UniProt P0DXN8)
Experiment: SEC; oligomeric state of purified DSR2, its mutants and the DSR2^H171A-Tube complex; Superdex 200 Increase 10/300 GL, 25 mM Tris-HCl pH 7.5, 150 mM NaCl; both purified

binding: no binding
B1: DSR2^W143G/Y148G/Y552G/V556S/F559G/N563S (enzyme, UniProt P0DXN8 1-1005)
chain: MVKVDLESKRYGEKLKEVFLMLDNNVVECIKEITESSRNGKLVFFVGAGVSTLSDYPQWWRLVDKYHEELYGSPKKGNYSSDEYLRIPQIFYNVKGEMAFDGILKDFFQVDKPTNPIHDKILAMNPAHVITTNYDNLIDTACGKRGKGFSVISAEEDVANATSSRYLLKVHGDFRKGFKGENVVLKEDDYLNYDQNYPLISNLMKTIIATHTIVFIGYGLGDYNINMLLNWVRKLQKDSFHKPFFIRTDPSPIENETLIYYENKGLRIIDAASLIDSNEYDYLERYSAVMDLLIESQENKFITKDDEVIDYIYGKISPLFALQYIRKIDLKHVFEYDYHFEVNGTVVRHKNKGFGYMERFFELKESCDERSKLSKKQYERFNALFNFFEKNGVICMAKDAGTLNTSIEINSLAYHGKYDVMKKFIEEQSVSIEDDYKKAFFLACLGRWEESYDLYSNIILNSIDESNGCVYYLSQINRYRIYQSITQAVTQFNGLGLLTFGRHYKPFTDEFLARIEREMTNFNIDDLFNGMPFEFQKKYKILEFLSDNQFLGDDTSKLGELTSKVRSEMSEGSYSFGMSSDIVVLLRLYDNLRFLYENCLWSVSFHEFHQYIRNSMSLLIEKAEYERTRDIDELGFSFFGKKSGFFMEYYDFVNISRHFKIDDIKNLERSCSIDKIRFGEQEKIEEYLVGIAEEITKQFSANGMNVVFYTQFISEAKAALYFAKYVKLSEEGLGKIVKALLFYFPERDLDIGKRYVWLERLTKCNELPKSIISIIDDFLVLQAEKHIDQNYSEVSSNGLYSRDYGALIKHFEKNFISKRLSEITLCLTQDKQKQIDFLFKLLPLLSTNAKSHLLSFKSVENINDLMNGIRIGLIDEFTPEHEELIIEYLETRKVNYIVEKEKGIQTFSSNDYMSTFGIWYFLEEINNSKMEEFIGMDDQYDFFVDPENFDYKKFIPSWLKNYNDKLLGKIAGNKHMKHHVIEVLKERVKNSNDKRYLEILMNYFI
